From PMC5112536
Results are given in words; binding and its absence hold for the method and conditions named. In cells and extracts the contact can be indirect. Some entries that bind do so weakly or less than the wild type. Sequences can lack the tags named with a protein.

Tests used:
[1] = biological target: T1, Myc-tagged full-length AIbZIP (human) (UniProt Q8TEY5); assay: co-IP; HEK293T cells co-transfected with the expression vectors; lysates incubated with anti-FLAG or anti-Myc antibodies overnight, protein G-agarose at 4 °C for 3 hours, washed with TNE buffer (10 mM Tris, 1 mM EDTA, 150 mM NaCl); western blot with anti-FLAG or anti-Myc
T1 sequence: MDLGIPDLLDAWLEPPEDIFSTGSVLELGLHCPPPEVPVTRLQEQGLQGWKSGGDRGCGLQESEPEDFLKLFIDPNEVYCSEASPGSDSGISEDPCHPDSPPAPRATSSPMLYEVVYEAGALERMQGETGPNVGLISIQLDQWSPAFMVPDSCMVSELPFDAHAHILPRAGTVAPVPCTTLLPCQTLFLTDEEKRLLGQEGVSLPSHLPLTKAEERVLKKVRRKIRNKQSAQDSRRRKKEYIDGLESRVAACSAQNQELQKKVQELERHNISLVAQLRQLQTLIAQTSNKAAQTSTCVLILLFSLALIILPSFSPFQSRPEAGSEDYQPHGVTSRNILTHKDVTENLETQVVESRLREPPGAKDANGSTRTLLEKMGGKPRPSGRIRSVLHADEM

[2] = biological target: T2, FLAG-tagged full length OASIS (human) (UniProt Q96BA8); assay: as above
T2 sequence: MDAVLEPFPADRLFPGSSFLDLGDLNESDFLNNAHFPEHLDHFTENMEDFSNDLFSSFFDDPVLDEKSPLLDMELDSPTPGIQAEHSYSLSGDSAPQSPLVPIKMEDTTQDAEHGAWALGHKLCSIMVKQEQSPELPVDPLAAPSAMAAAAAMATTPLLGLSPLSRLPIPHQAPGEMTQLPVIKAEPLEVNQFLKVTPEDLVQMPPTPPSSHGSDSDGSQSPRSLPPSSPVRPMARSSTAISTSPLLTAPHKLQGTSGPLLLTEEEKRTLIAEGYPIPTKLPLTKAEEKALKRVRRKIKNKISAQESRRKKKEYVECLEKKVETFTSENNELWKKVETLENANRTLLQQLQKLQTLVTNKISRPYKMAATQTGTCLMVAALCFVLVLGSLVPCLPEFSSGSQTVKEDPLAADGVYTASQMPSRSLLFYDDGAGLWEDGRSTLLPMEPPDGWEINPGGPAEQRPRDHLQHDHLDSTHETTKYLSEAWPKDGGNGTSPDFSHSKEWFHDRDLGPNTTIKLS

B1: FLAG-tagged full length OASIS (protein, UniProt Q96BA8 1-519)
chain: MDAVLEPFPADRLFPGSSFLDLGDLNESDFLNNAHFPEHLDHFTENMEDFSNDLFSSFFDDPVLDEKSPLLDMELDSPTPGIQAEHSYSLSGDSAPQSPLVPIKMEDTTQDAEHGAWALGHKLCSIMVKQEQSPELPVDPLAAPSAMAAAAAMATTPLLGLSPLSRLPIPHQAPGEMTQLPVIKAEPLEVNQFLKVTPEDLVQMPPTPPSSHGSDSDGSQSPRSLPPSSPVRPMARSSTAISTSPLLTAPHKLQGTSGPLLLTEEEKRTLIAEGYPIPTKLPLTKAEEKALKRVRRKIKNKISAQESRRKKKEYVECLEKKVETFTSENNELWKKVETLENANRTLLQQLQKLQTLVTNKISRPYKMAATQTGTCLMVAALCFVLVLGSLVPCLPEFSSGSQTVKEDPLAADGVYTASQMPSRSLLFYDDGAGLWEDGRSTLLPMEPPDGWEINPGGPAEQRPRDHLQHDHLDSTHETTKYLSEAWPKDGGNGTSPDFSHSKEWFHDRDLGPNTTIKLS
[1]
  binding: binds

B2: Myc-tagged full-length AIbZIP (protein, UniProt Q8TEY5 1-395)
chain: MDLGIPDLLDAWLEPPEDIFSTGSVLELGLHCPPPEVPVTRLQEQGLQGWKSGGDRGCGLQESEPEDFLKLFIDPNEVYCSEASPGSDSGISEDPCHPDSPPAPRATSSPMLYEVVYEAGALERMQGETGPNVGLISIQLDQWSPAFMVPDSCMVSELPFDAHAHILPRAGTVAPVPCTTLLPCQTLFLTDEEKRLLGQEGVSLPSHLPLTKAEERVLKKVRRKIRNKQSAQDSRRRKKEYIDGLESRVAACSAQNQELQKKVQELERHNISLVAQLRQLQTLIAQTSNKAAQTSTCVLILLFSLALIILPSFSPFQSRPEAGSEDYQPHGVTSRNILTHKDVTENLETQVVESRLREPPGAKDANGSTRTLLEKMGGKPRPSGRIRSVLHADEM
[2]
  binding: binds
